PMC3858555
Results are given in words; binding and its absence hold for the method and conditions named. In cells and extracts the contact can be indirect. Some results given as binding are weak or reduced against the parent protein; the word gives no strength.

Amino acid sequences for entries named in this document (tags omitted). A change or cut given only in a name is not applied to a line headed by its entry. Chains listed by the source or under a name are the forms on record and can include a tag or linker.
UniProt Q14247: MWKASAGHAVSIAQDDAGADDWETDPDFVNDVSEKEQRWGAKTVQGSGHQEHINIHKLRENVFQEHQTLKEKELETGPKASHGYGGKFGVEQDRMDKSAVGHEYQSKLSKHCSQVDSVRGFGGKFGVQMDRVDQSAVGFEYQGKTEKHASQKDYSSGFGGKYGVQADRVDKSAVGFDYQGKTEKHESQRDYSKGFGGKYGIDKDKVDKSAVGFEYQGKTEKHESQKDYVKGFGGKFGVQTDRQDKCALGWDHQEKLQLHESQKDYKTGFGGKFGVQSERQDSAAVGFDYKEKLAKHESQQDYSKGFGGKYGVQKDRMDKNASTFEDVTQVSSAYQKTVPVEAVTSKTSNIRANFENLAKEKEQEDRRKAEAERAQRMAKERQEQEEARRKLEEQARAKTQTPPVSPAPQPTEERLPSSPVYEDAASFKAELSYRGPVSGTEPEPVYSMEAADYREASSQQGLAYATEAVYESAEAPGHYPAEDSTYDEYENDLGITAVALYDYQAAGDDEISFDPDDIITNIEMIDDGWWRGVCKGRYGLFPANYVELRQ
MUC1/Y, an isoform of MUC1 lacking most of the extracellular domain (P15941, form named): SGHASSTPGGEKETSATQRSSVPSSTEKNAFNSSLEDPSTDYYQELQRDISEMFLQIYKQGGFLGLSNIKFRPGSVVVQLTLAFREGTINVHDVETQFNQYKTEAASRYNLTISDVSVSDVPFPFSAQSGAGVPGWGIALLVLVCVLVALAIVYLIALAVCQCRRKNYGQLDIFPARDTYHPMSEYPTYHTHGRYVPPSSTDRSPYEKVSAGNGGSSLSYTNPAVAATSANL
UniProt Q96B97: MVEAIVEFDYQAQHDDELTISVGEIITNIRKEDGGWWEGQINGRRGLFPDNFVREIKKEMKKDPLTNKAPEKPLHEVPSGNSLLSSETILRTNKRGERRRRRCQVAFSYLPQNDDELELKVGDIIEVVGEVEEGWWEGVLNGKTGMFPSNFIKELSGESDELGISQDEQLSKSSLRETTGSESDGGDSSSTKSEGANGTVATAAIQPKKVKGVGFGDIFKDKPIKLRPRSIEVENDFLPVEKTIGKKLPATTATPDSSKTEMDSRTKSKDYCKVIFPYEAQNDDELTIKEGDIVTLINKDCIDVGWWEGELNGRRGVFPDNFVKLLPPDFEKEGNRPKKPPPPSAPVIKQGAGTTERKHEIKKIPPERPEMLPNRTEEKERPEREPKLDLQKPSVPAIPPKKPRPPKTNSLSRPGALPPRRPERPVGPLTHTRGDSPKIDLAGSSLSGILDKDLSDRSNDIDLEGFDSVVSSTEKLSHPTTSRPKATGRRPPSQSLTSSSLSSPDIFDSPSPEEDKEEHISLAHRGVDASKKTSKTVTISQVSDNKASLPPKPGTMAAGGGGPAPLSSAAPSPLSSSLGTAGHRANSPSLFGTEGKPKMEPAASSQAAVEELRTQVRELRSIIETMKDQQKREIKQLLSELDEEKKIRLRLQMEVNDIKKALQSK
UniProt Q8R550: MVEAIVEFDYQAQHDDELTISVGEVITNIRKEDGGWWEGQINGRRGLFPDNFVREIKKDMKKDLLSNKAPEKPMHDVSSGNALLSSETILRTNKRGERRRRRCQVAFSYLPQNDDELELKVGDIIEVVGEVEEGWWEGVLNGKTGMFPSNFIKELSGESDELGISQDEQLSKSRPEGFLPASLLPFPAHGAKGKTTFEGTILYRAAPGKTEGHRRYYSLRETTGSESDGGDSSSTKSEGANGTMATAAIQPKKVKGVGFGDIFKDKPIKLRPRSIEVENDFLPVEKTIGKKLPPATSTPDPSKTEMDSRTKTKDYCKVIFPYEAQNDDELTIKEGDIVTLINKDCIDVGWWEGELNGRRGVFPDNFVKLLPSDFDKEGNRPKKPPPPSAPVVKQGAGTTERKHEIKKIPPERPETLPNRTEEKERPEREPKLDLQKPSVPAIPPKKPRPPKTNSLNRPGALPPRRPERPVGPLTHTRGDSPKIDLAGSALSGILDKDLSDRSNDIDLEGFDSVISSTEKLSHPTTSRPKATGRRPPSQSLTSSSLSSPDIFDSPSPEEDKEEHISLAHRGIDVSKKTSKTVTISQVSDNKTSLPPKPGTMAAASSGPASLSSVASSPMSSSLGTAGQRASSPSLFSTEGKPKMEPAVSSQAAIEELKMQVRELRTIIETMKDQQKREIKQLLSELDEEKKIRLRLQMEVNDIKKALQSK

Columns and labels:
[1] = target: cortactin (human (endogenous in MDA-MB-231)) (UniProt Q14247); test: co-IP; MDA-MB-231 lysate precipitated with anti-cortactin antibody or control IgG, blotted with anti-MUC1 and anti-CIN85
[2] = target: MUC1/Y, an isoform of MUC1 lacking most of the extracellular domain (human) (UniProt P15941); test: co-IP; DM6, B16 and RMA cells stably transfected with MUC1/22TR or MUC1/Y; which antibody precipitated is not told (Supplementary Fig S1)

| Substance | binding [1] | binding [2] |
| --- | --- | --- |
| CIN85 of human tumor cell lines (from UniProt Q96B97 1-665) | binds | binds |
| CIN85 of mouse tumor cell lines (from UniProt Q8R550 1-709) |  | binds |
